# In the supplement of paper PMC12819154, “High-throughput peptide-centric local stability assay extends protein–ligand identification to membrane proteins, tissues and bacteria” (Nature Structural & Molecular Biology, 2025):
# The chains behind the UniProt entries cited, without tags or fusion partners. Where a name states a change or a piece, a line headed by the entry shows the natural chain unless it says otherwise.
# UniProt Q61136: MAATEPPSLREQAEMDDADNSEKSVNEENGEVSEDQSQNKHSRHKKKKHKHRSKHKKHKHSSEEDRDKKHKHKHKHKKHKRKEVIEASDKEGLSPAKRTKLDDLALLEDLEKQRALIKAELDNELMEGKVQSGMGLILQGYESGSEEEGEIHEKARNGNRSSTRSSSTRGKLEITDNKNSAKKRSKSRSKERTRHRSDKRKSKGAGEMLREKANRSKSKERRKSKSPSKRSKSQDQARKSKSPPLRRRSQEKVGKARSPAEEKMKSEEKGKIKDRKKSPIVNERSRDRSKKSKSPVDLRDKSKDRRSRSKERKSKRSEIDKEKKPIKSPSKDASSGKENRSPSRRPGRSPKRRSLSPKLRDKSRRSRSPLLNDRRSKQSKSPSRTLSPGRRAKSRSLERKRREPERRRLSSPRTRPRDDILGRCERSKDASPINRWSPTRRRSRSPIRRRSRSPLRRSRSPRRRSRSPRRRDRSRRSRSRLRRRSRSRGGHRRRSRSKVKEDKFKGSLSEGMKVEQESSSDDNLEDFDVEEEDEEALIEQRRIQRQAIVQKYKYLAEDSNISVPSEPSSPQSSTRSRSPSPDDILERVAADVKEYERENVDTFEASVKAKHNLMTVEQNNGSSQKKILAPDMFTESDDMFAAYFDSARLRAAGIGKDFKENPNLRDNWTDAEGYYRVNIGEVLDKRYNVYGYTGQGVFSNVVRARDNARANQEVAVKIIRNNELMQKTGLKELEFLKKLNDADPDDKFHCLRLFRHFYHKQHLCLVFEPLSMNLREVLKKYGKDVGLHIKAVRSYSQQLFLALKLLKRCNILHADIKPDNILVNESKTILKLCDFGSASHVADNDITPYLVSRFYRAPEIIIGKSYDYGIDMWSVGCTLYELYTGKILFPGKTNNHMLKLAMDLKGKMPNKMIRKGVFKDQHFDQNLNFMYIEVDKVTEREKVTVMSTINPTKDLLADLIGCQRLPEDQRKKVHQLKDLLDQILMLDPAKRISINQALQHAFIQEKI
# UniProt Q61704: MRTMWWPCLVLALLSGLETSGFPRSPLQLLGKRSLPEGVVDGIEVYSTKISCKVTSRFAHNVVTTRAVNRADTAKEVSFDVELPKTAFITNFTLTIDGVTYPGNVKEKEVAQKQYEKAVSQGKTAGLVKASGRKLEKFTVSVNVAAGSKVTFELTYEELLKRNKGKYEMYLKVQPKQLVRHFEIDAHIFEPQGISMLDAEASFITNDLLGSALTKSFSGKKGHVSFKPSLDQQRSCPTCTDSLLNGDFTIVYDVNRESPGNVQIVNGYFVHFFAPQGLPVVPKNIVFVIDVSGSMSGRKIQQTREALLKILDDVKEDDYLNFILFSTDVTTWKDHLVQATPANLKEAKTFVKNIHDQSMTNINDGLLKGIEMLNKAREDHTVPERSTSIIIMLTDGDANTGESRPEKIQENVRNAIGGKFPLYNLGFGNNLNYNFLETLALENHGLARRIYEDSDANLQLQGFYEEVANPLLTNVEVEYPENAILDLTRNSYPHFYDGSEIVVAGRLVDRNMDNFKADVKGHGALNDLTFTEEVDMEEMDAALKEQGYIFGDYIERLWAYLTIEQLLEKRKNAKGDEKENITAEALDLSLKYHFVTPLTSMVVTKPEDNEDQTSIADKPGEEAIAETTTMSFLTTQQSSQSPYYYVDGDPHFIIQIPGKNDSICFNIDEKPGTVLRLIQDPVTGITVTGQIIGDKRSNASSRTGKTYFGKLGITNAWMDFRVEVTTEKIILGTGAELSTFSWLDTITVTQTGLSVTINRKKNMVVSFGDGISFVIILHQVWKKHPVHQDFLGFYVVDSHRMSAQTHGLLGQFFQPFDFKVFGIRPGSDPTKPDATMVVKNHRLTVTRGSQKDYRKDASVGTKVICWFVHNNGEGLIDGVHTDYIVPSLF
# UniProt Q61160: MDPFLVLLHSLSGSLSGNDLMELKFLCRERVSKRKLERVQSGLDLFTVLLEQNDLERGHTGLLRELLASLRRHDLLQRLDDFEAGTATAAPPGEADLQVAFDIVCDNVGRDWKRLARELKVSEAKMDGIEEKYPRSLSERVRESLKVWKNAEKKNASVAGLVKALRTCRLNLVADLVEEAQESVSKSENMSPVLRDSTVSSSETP
# UniProt Q60870: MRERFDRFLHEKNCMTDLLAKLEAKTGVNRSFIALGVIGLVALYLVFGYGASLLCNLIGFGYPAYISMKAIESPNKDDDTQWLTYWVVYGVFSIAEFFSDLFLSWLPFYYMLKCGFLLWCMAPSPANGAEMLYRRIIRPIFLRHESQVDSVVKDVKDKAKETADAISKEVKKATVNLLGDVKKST
# UniProt Q62433: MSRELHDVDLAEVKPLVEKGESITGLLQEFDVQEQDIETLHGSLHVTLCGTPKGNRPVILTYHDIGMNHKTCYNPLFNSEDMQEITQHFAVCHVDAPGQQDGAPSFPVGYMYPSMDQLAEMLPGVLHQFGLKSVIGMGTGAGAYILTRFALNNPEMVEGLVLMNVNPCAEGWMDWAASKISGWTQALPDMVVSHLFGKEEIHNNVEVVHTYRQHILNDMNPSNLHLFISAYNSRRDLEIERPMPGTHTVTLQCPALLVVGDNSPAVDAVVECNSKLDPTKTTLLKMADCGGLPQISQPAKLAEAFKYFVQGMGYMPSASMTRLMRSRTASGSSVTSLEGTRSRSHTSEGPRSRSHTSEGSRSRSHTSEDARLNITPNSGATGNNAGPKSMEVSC
# UniProt Q61112: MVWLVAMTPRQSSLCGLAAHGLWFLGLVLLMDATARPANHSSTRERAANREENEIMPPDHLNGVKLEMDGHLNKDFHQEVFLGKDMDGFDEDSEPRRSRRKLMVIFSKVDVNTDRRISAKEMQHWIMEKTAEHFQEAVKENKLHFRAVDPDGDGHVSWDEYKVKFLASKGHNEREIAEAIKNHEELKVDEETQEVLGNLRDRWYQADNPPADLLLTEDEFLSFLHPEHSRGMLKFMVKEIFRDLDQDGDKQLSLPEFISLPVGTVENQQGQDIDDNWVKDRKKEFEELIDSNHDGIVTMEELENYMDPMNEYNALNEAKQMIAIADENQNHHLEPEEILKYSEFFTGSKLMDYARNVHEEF
# UniProt Q61644: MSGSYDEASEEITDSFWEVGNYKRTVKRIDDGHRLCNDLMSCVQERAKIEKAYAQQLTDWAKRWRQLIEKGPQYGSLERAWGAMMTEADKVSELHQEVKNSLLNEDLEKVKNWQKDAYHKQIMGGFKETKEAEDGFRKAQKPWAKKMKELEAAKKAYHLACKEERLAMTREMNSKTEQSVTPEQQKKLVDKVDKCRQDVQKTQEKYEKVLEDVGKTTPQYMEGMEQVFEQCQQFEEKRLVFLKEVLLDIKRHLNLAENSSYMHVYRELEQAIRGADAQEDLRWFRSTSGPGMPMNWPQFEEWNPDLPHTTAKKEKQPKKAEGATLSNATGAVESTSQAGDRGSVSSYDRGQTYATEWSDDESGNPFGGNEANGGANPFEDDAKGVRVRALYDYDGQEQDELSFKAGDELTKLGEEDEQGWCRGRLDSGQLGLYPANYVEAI
# UniProt Q64487, whole entry: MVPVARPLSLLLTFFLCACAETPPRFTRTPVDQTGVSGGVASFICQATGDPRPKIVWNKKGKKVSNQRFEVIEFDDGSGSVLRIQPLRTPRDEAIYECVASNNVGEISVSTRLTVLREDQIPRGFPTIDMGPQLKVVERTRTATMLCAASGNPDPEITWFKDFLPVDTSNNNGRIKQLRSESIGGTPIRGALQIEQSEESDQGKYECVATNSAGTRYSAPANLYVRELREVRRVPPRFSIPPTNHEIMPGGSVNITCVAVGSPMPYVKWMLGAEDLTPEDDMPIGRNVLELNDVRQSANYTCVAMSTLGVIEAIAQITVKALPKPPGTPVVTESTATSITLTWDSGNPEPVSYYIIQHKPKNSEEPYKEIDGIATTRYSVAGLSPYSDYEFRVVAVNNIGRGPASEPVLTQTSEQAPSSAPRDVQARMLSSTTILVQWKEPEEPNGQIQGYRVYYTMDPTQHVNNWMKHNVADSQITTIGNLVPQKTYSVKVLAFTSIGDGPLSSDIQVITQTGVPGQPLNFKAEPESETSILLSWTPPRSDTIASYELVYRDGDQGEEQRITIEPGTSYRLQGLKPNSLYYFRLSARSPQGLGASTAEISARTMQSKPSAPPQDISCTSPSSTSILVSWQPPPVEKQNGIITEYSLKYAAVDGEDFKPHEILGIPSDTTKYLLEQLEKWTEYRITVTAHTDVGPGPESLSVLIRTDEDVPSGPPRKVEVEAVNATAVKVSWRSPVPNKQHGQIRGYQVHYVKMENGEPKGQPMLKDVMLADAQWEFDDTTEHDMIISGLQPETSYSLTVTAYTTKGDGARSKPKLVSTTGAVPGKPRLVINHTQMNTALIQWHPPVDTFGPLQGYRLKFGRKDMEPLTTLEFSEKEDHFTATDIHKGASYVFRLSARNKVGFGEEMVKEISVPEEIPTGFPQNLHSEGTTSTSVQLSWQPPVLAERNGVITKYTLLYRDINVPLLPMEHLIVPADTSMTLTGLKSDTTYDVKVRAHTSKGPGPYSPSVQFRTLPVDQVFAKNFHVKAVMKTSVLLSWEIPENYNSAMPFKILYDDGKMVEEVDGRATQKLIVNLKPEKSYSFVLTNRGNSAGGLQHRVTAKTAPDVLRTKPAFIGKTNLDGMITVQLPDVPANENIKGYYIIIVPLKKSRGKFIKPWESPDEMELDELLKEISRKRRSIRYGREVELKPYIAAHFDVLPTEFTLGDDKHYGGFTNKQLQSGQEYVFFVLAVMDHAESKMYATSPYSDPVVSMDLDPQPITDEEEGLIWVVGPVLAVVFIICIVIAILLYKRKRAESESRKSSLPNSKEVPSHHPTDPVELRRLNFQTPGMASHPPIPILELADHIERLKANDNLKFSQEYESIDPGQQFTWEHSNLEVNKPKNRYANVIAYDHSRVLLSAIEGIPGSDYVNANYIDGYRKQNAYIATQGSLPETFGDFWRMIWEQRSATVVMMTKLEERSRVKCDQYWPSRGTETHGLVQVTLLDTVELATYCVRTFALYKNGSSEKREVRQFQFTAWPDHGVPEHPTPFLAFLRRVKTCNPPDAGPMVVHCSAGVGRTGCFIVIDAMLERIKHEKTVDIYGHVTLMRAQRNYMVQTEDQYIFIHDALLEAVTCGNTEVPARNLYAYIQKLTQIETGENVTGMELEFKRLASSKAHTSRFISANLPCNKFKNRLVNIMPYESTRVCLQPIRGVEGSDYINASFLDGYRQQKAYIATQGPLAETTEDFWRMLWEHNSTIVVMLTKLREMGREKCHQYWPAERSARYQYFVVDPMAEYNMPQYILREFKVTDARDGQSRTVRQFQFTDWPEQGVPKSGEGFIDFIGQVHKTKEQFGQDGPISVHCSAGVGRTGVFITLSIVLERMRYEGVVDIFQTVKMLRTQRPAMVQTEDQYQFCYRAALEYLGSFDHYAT
# UniProt Q64737: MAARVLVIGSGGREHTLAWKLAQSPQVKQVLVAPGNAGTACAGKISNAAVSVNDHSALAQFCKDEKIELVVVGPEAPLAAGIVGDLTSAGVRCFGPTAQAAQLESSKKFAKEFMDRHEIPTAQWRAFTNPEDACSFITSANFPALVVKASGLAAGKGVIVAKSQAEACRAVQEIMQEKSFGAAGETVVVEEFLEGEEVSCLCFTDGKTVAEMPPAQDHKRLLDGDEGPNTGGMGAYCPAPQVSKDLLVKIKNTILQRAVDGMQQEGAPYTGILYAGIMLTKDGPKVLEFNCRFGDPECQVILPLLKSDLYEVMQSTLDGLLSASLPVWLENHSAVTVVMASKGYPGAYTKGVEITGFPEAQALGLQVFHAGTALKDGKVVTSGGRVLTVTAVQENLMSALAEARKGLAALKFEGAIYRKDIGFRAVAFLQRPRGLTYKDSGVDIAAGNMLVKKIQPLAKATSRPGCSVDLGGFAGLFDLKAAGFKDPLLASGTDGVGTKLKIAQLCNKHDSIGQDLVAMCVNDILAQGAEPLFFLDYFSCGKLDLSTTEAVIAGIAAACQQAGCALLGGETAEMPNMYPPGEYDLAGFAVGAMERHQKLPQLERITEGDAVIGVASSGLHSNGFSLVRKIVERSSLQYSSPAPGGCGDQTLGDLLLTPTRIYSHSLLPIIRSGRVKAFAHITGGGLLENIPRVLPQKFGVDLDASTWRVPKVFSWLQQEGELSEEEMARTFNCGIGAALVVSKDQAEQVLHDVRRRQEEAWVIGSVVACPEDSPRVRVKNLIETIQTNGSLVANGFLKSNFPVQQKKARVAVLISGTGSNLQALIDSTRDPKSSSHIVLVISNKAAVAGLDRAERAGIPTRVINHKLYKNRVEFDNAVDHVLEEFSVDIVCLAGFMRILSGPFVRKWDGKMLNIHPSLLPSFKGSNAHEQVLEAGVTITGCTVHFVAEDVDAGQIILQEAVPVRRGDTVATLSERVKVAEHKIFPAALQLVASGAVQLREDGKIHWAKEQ
# The other results are listed elsewhere or left out. Small differences around the control level are noise.
# Compound: CN[C@@H]1C[C@H]2O[C@@](C)([C@@H]1OC)n1c3ccccc3c3c4c(c5c6ccccc6n2c5c31)C(=O)NC4 [staurosporine]
# Assay: log2 fold change of pooled soluble protein (PISA), ligand vs vehicle (log2 ratio); higher = more thermally stabilized
# Settings: ligand concentration: 20 uM; assay format: PISA pool 52.9/55.5/58.6 C
target,measurement,value
UniProt Q60668,log2 fold change of pooled soluble protein,-0.0541
UniProt Q61136,log2 fold change of pooled soluble protein,0.0416
UniProt Q64674,log2 fold change of pooled soluble protein,-0.0235
UniProt Q64726,log2 fold change of pooled soluble protein,-0.057
UniProt Q61704,log2 fold change of pooled soluble protein,-0.397
UniProt Q63961,log2 fold change of pooled soluble protein,0.0765
UniProt Q65Z40,log2 fold change of pooled soluble protein,-0.0915
UniProt Q61090,log2 fold change of pooled soluble protein,-0.146
UniProt Q61160,log2 fold change of pooled soluble protein,-0.372
UniProt Q63880,log2 fold change of pooled soluble protein,-0.0353
UniProt Q5SRX1,log2 fold change of pooled soluble protein,0.366
UniProt Q60870,log2 fold change of pooled soluble protein,0.116
UniProt Q64345,log2 fold change of pooled soluble protein,0.141
UniProt Q61543,log2 fold change of pooled soluble protein,0.0683
UniProt Q60575,log2 fold change of pooled soluble protein,-0.246
UniProt Q61703,log2 fold change of pooled soluble protein,-0.0187
UniProt Q62440,log2 fold change of pooled soluble protein,-0.0302
UniProt Q60865,log2 fold change of pooled soluble protein,-0.0306
UniProt Q5SSZ5,log2 fold change of pooled soluble protein,0.105
UniProt Q64314,log2 fold change of pooled soluble protein,0.419
UniProt Q62433,log2 fold change of pooled soluble protein,-0.0821
UniProt Q61112,log2 fold change of pooled soluble protein,0.0232
UniProt Q64378,log2 fold change of pooled soluble protein,-0.0893
UniProt Q62384,log2 fold change of pooled soluble protein,0.0392
UniProt Q61644,log2 fold change of pooled soluble protein,-0.301
UniProt Q62348,log2 fold change of pooled soluble protein,0.153
UniProt Q64487,log2 fold change of pooled soluble protein,-0.196
UniProt Q64374,log2 fold change of pooled soluble protein,-0.0472
UniProt Q61171,log2 fold change of pooled soluble protein,-0.000857
UniProt Q62523,log2 fold change of pooled soluble protein,0.244
UniProt Q61102,log2 fold change of pooled soluble protein,0.00635
UniProt Q63918,log2 fold change of pooled soluble protein,0.0642
UniProt Q5SUR0,log2 fold change of pooled soluble protein,0.0312
UniProt Q61146,log2 fold change of pooled soluble protein,0.0112
UniProt Q61712,log2 fold change of pooled soluble protein,-0.0368
UniProt Q64737,log2 fold change of pooled soluble protein,0.0457
UniProt Q62188,log2 fold change of pooled soluble protein,0.0557

# Reformatted: results already given.
target | measurement | value
UniProt Q62523 | log2 fold change of pooled soluble protein | 0.244
UniProt Q61102 | log2 fold change of pooled soluble protein | 0.00635
